Experimental data published in patent publication US7067302B2, “DNA and amino acid sequence of a tyrosine ammonia lyase enzyme from the bacterium Rhodobacter sphaeroides” (E. I. du Pont de Nemours and Company, priority 2002, dated 2006).
At least one read-out could not be matched to a standard name with certainty.

Tests used:
[1] = Kinetic analysis of purified RsTAL with tyrosine (Lineweaver-Burk); type: biochemical; conditions: substrate tyrosine
Procedure: Crude cell extracts were generated by sonication of a suspension of the transformed cells, followed by centrifugation. The TAL enzyme activity of the crude cell extracts was determined by an enzyme assay using 40 μg of crude cell extract in 10 mM Tris-HCl, pH 8.5 buffer containing 1 mM tyrosine. The OD of the pHCA produced was followed at 315 nm with an extinction coefficient of […]. The results of the TAL enzyme assay are given in Table 5 in terms of activity units. A unit (U) is defined as follows: one unit of activity deaminated 1 μmol of tyrosine to pHCA per min.
A 500 mL culture of the E. coli BL21(DE3)RP(pKK233.RsTAL2) strain was grown in LB Broth, containing […] ampicillin to mid log phase, induced with 1 mM IPTG, and incubated overnight (18 h) in a 37° C. shaker. […] The eluted fractions were analyzed for TAL activity, and the fractions containing TAL activity were pooled, precipitated again using ammonium sulfate at 50% saturation, and desalted using a 3 mL desalting column (Bio-Rad Laboratories, Hercules, Calif.). […] TAL activity was detected in the flow-through fractions. […]
(§1) The kinetic parameters of the RsTAL enzyme were characterized using'the TAL enzyme assay described above. The initial rates of the enzyme reaction were measured at tyrosine concentrations of 0.01 to 10 mM in 50 mM Tris-HCl, pH 8.5 buffer. […]

[2] = Kinetic analysis of purified RsTAL with phenylalanine (Lineweaver-Burk); type: biochemical; conditions: substrate phenylalanine
Procedure: A 500 mL culture of the E. coli BL21(DE3)RP(pKK233.RsTAL2) strain was grown in LB Broth, containing […] ampicillin to mid log phase, induced with 1 mM IPTG, and incubated overnight (18 h) in a 37° C. shaker. The cells were centrifuged and resuspended in 10 mL of Buffer A (50 mM Tris-HCl, pH 8.5 buffer, 5 mM DTT (dithiothreitol), and 1 mM tyrosine) containing one and a half EDTA-free protease inhibitor tablets (Roche Applied Science, Indianapolis, Ind.). The cells were then passed through a French Press Cell twice, and centrifuged at 18000 rpm for 20 min. Ammonium sulfate at 30% saturation was added to the […] supernatant and the resulting precipitate was removed by centrifugation. The supernatant from this first fractionation was then treated with ammonium sulfate at 50% saturation. […] The eluted fractions were analyzed for TAL activity, and the fractions containing TAL activity were pooled, precipitated again using ammonium sulfate at 50% saturation, and desalted using a 3 mL desalting column (Bio-Rad Laboratories, Hercules, Calif.). […] TAL activity was detected in the flow-through fractions. […]
as §1

B1: RsTAL: the TAL enzyme from Rhodobacter sphaeroides, 526 amino acids, SEQ ID NO:3 (protein)
chain: VKPMLAMSPPKPAVELDRHIDLDQAHAVASGGARIVLAPPARDRCRASEARLGAVIREARHVYGLTTGFGPLANRLISGENVRTLQANLVHHLASGVGPVLDWTTARAMVLARLVSIAQGASGASEGTIARLIDLLNSELAPAVPSRGTVGASGDLTPLAHMVLCLQGRGDFLDRDGTRLDGAEGLRRGRLQPLDLSHRDALALVNGTSAMTGIALVNAHACRHLGNWAVALTALLAECLRGRTEAWAAALSDLRPHPGQKDAAARLRARVDGSARVVRHVIAERRLDAGDIGTEPEAGQDAYSLRCAPQVLGAGFDTLAWHDRVLTIELNAVTDNPVFPPDGSVPALHGGNFMGQHVALTSDALATAVTVLAGLAERQIARLTDERLNRGLPPFLHRGPAGLNSGFMGAQVTATALLAEMRATGPASIHSISTNAANQDVVSLGTIAARLCREKIDRWAEILAILALCLAQAAELRCGSGLDGVSPAGKKLVQALREQFPPLETDRPLGQEIAALATHLLQQSPV
modifications: R. sphaeroides
For B1, the kcat/Km [1] was 333 M⁻¹ s⁻¹ and the kcat/Km [2] was 18 M⁻¹ s⁻¹.
